Experimental data: PubChem BioAssay AID1159584 (Peter MacCallum Cancer Centre, 2016)
Purpose: 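Genes whose loss is lethal only together with E-cadherin loss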 (primary screen). System: human MCF10A breast epithelial cells, parental and CDH1-null. Reagents: siRNA against human genes. Measurement: 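Cell viability by CellTiter-Glo ATP luminescence, each line scaled to the mean of mock wells across plates, then CDH1-null over parental ratio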. Direction: CDH1-null / parental viability ratio: higher = CDH1-null cells survive relatively better than parental; CDH1-null viability vs mock: higher = more viable CDH1-null cells; parental viability vs mock: higher = more viable parental cells.
The whole screen tested about 18,000 reagents; this is an unselected part. No sequences are given here. Not given: the amount of reagent, the time to read-out.

no.	gene	CDH1-null / parental viability ratio	CDH1-null viability vs mock (fraction of mock)	parental viability vs mock (fraction of mock)
1	OGFOD1	1.22	0.88	0.72
2	SCAF8 (SR-related CTD associated factor 8)	1.03	0.62	0.6
3	SMARCA4	1.12	0.99	0.88
4	ARFGEF3 (ARFGEF family member 3)	0.91	0.8	0.88
5	SPAG7 (sperm associated antigen 7)	0.95	0.7	0.74
6	TTLL11 (tubulin tyrosine ligase like 11)	1.14	0.98	0.86
7	IGFBPL1 (insulin like growth factor binding protein like 1)	0.87	0.68	0.78
8	DDR2 (discoidin domain receptor tyrosine kinase 2)	0.89	0.82	0.92
9	JAK1 (Janus kinase 1)	0.98	0.94	0.96
10	ITPR2 (inositol 1,4,5-trisphosphate receptor type 2)	1.3	0.96	0.74
11	GART	1.09	0.74	0.68
12	ABTB2 (ankyrin repeat and BTB domain containing 2)	0.82	0.56	0.68
13	OR13F1 (olfactory receptor family 13 subfamily F member 1)	1.07	0.6	0.56
14	NKTR (natural killer cell triggering receptor)	1.07	1.04	0.97
15	TRAF7 (TNF receptor associated factor 7)	0.93	0.77	0.83
16	DBF4 (DBF4-CDC7 kinase regulatory subunit)	0.97	0.72	0.74
17	EDAR (ectodysplasin A receptor)	0.74	0.64	0.86
18	ABCA10 (ATP binding cassette subfamily A member 10)	1.1	1.12	1.02
19	AMER2 (APC membrane recruitment protein 2)	1.6	0.64	0.4
20	TLNRD1 (talin rod domain containing 1)	1.22	0.9	0.74
21	IFT122 (intraflagellar transport 122)	1.02	0.86	0.84
22	RFX1 (regulatory factor X1)	0.94	0.66	0.7
23	SP8 (Sp8 transcription factor)	0.89	0.55	0.62
24	C14orf180 (chromosome 14 open reading frame 180)	1.02	0.82	0.8
25	CELA3B (chymotrypsin like elastase 3B)	0.74	0.56	0.76
26	ANGPTL7 (angiopoietin like 7)	0.82	0.74	0.9
27	PTGFRN (prostaglandin F2 receptor inhibitor)	0.71	0.54	0.76
28	SNX18 (sorting nexin 18)	1.19	0.51	0.43
